Results as given in the supplement of paper PMC10849652.
The list shows a part of the results. Residues, ends and D or L forms follow the SMILES beside them. *: point of attachment. Cbz = O=C(OCc1ccccc1)*

The chains behind the UniProt entries cited, without tags or fusion partners. Where a name states a change or a piece, a line headed by the entry shows the natural chain unless it says otherwise.
UniProt Q8NI08: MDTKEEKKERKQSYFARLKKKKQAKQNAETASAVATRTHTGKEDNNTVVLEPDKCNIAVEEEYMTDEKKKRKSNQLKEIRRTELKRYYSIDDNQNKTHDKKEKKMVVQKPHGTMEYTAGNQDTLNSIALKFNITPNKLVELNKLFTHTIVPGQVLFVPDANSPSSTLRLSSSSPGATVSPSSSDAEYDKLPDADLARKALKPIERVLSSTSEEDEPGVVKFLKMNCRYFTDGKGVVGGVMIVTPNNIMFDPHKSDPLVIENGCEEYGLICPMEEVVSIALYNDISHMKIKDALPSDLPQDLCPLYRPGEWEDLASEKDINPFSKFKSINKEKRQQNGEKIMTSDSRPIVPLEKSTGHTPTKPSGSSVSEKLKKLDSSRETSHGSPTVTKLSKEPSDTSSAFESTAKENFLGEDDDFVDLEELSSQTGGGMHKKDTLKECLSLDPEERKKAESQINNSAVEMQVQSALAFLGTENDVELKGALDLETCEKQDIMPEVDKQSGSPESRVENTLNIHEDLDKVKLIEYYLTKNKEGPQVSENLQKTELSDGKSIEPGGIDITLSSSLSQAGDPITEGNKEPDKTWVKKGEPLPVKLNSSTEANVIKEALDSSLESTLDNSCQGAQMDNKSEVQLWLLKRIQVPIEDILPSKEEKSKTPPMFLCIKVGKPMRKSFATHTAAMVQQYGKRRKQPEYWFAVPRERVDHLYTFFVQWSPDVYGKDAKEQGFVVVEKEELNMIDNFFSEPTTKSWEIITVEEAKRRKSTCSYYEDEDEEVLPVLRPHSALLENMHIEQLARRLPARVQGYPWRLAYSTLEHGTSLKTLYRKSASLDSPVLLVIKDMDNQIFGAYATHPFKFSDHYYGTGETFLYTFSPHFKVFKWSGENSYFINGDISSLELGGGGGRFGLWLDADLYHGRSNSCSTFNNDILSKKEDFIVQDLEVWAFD
UniProt O95299, whole entry, looked up: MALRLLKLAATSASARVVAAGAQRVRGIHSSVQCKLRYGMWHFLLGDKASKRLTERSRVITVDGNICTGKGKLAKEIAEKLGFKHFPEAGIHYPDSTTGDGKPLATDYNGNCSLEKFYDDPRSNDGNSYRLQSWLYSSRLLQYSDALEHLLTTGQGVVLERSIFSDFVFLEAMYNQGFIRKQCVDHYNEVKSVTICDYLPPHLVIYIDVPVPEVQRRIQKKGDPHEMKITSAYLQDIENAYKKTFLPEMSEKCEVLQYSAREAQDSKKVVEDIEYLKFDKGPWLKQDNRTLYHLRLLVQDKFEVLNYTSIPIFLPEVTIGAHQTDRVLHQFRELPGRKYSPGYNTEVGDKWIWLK
UniProt Q330K2: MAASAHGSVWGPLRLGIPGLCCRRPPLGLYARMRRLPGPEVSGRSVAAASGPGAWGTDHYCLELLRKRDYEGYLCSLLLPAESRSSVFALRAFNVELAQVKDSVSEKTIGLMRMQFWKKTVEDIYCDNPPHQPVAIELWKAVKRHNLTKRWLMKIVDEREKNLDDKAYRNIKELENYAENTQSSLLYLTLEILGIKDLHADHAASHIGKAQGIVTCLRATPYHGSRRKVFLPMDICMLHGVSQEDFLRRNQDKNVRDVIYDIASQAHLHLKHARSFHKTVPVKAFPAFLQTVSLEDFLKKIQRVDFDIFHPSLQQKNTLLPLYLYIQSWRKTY
UniProt Q9BT67: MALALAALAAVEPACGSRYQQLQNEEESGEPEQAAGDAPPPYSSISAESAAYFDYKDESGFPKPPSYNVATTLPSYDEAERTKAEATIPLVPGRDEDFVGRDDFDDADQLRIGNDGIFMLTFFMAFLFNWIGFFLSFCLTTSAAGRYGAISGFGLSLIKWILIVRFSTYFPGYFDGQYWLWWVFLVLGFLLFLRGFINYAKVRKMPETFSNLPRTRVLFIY
UniProt Q9BTX1: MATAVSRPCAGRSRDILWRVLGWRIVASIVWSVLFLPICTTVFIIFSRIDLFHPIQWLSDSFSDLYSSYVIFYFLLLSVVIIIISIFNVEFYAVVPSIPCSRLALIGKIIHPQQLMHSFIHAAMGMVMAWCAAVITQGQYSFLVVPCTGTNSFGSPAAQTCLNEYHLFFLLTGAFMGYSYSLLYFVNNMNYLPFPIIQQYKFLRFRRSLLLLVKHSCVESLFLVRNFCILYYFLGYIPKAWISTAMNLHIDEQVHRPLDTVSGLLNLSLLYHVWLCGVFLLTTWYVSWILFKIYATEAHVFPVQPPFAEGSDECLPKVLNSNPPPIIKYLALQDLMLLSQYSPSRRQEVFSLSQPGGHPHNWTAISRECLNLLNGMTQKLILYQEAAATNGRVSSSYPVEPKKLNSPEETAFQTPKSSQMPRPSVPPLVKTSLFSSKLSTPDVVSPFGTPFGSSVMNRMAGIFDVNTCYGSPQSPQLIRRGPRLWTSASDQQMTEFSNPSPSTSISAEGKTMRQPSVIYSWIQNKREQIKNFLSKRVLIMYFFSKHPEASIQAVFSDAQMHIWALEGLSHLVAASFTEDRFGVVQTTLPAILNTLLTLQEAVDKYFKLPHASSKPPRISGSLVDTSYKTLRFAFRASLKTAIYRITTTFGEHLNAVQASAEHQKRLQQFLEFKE
UniProt Q92692, whole entry, looked up: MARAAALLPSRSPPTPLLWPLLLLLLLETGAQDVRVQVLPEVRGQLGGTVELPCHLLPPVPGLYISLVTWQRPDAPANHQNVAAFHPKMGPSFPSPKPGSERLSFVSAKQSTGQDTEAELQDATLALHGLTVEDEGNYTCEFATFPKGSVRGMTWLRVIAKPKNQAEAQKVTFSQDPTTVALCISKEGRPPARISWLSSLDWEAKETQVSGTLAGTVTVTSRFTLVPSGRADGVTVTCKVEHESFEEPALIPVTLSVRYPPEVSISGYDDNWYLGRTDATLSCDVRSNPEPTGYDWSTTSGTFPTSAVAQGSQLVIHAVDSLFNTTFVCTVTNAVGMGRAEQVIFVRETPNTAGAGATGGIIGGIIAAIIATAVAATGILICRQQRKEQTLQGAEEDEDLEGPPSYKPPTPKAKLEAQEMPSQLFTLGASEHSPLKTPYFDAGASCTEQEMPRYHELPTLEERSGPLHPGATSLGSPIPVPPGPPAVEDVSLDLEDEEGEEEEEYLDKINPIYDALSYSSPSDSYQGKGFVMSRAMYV
UniProt Q96PU5: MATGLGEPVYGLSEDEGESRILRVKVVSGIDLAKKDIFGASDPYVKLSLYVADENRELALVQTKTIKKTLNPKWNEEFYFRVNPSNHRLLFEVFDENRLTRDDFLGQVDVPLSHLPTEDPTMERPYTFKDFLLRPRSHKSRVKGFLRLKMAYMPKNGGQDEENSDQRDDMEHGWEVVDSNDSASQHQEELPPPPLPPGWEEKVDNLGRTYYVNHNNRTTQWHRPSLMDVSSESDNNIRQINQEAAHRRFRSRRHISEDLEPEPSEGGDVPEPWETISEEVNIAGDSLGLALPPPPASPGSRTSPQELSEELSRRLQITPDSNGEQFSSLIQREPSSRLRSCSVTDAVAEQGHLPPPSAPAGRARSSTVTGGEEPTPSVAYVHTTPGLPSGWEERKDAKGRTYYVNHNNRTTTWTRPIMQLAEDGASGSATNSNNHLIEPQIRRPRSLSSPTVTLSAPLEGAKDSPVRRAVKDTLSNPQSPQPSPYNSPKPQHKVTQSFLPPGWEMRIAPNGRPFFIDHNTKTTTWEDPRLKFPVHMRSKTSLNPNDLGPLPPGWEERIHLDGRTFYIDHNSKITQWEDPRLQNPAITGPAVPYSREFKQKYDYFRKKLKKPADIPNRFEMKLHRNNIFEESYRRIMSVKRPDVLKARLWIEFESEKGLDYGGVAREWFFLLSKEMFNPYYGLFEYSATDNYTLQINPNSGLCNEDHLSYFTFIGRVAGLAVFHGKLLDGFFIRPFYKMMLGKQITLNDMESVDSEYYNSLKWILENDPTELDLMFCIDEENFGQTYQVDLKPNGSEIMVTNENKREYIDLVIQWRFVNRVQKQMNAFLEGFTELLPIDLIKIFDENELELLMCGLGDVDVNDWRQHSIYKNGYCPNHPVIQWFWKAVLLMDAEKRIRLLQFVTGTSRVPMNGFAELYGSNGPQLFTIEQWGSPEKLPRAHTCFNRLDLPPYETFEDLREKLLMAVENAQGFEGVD
UniProt Q8TBE9: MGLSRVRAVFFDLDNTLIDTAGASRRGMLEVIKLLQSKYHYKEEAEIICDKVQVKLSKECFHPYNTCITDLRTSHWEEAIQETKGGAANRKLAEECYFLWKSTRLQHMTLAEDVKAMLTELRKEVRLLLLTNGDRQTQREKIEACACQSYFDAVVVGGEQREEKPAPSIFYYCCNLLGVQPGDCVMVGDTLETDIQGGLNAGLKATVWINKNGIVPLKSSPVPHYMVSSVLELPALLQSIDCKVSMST
UniProt Q96I59: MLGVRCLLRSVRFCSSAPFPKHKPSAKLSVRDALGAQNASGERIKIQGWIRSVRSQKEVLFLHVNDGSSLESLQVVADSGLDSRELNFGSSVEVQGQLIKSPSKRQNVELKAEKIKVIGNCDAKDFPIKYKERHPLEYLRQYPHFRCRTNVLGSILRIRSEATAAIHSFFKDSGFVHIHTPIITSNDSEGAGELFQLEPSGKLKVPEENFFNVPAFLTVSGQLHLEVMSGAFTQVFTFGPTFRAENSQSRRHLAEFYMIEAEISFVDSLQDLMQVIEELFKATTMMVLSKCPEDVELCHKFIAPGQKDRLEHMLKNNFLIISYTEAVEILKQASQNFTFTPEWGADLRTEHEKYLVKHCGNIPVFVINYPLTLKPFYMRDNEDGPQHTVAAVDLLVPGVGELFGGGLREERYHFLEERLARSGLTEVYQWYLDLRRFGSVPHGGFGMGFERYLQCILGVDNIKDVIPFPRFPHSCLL
UniProt O95169, whole entry, looked up: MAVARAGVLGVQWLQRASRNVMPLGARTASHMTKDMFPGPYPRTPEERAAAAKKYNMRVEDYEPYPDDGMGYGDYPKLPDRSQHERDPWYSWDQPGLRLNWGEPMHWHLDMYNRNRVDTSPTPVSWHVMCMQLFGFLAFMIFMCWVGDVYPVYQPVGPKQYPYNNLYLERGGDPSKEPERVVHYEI
UniProt P46934: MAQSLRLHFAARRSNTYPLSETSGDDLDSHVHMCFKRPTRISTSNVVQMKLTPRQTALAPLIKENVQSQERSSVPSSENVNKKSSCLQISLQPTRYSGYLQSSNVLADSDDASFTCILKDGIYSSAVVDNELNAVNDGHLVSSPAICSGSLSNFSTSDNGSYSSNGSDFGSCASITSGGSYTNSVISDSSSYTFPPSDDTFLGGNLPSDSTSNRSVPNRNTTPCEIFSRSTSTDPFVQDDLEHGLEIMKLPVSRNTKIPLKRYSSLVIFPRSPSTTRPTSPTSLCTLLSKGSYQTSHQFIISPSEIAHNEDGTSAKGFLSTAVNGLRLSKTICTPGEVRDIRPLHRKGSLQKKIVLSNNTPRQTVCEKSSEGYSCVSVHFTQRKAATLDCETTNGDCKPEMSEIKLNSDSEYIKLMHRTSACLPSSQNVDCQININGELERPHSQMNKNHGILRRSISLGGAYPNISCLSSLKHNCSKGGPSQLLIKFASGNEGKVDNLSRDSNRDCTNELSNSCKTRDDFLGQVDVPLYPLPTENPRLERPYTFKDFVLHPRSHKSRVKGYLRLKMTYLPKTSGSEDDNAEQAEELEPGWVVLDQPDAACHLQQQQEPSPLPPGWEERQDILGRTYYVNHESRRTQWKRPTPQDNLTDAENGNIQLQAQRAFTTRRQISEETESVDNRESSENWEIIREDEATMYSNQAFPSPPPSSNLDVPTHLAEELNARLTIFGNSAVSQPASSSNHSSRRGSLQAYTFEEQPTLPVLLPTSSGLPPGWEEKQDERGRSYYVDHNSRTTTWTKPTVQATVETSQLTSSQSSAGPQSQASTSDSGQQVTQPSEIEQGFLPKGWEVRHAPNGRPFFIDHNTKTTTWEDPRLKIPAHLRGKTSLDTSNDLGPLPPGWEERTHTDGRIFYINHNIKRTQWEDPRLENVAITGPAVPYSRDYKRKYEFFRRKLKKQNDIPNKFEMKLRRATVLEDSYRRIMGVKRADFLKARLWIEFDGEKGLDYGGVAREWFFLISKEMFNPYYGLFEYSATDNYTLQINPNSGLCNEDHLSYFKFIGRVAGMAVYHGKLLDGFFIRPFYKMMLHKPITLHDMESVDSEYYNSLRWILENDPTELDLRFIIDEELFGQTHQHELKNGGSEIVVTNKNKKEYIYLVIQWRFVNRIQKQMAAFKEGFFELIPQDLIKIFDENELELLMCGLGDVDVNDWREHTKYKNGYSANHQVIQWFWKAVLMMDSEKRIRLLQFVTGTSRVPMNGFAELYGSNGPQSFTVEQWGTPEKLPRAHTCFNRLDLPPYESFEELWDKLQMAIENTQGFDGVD
UniProt P56556, whole entry, looked up: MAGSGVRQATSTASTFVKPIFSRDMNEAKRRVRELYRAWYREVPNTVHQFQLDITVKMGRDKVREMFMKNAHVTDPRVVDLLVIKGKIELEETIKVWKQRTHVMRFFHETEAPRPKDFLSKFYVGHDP
UniProt O43181, whole entry, looked up: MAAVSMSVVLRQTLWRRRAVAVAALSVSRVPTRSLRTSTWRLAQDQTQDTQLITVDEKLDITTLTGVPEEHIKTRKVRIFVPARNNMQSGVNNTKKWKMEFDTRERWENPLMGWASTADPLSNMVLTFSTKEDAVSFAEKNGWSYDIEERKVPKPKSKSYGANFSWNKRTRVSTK

Experiments:
Test in all cases: log2 fold change, soluble protein after heating vs DMSO (PISA); higher = thermal stabilisation; K562 cells, 10 uM, 30 min; active = over 0.2 and 3.5 SD of the protein, either way, in both replicates (recomputed)
erlotinib = compound: C#Cc1cccc(Nc2ncnc3cc(OCCOC)c(OCCOC)cc23)c1 [erlotinib]
In short: (§1)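 Thermal stability values are relative to control samples and come from duplicates. They are expressed as log2 fold changes. For measurement, K562 cells (2×10^6 cells/mL) received 10 μM compound for 30 min, and aliquots were heated for 3 min over 48°C-58°C, pooled, and extracted at 4°C in PBS with 0.5% NP-40. Soluble protein, the supernatant after 21,000xg for 90 min, was quantified by TMTpro 16plex LC-MS/MS with equalised channel sums.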

[1] = compound: C/C(=N\NC(=O)C1=CC(=CC=C1)S(=O)(=O)N2CCOCC2)/C3=C(C=CC(=C3)Cl)O
In short: as §1

[2] = compound: C1=CC(=C(C=C1Cl)C2=NC3=NC=CN=C3C(=N2)NC4=CC=NC=C4)F
In short: as §1

[3] = compound: C1=CC(=CC=C1C2=NC3=C(N2)C=C(C=C3)C(=O)N)OC4=CC=C(C=C4)Cl
In short: as §1

[4] = compound: C1=CC2=C(C=CC(=C2)/C=C\3/C(=O)NC(=NCC4=CC=CS4)S3)N=C1
In short: as §1

[5] = compound: C1=CC2=NC=CN=C2C=C1/C=C/3\C(=O)NC(=O)S3
In short: as §1

[6] = compound: C1=CC=C(C=C1)C2=NC(=C(N2)C3=CC=NC=C3)C4=CC(=C(C=C4)Cl)O
In short: as §1

[7] = compound: C1=CC=C2C(=C1)C3=NNC4=CC=CC(=C43)C2=O
In short: as §1

[8] = compound: C1CCN(C1)C(=O)NC2=CC=CC(=C2)NC3=NC=C(C(=N3)NCCC4=CN=CN4)Br
In short: as §1

[9] = compound: C1CN(CCC1(CC2=CC=C(C=C2)Cl)N)C3=NC=NC4=C3C=CN4
In short: as §1

IRAK-1-4 Inhibitor I = compound: C1COCCN1CCN2C3=CC=CC=C3N=C2NC(=O)C4=CC(=CC=C4)[N+](=O)[O-] [IRAK-1-4 Inhibitor I]
In short: as §1

ibrutinib = compound: C=CC(=O)N1CCC[C@@H](n2nc(-c3ccc(Oc4ccccc4)cc3)c3c(N)ncnc32)C1 [ibrutinib]
In short: as §1

[10] = compound: CC(=O)c1cnc2ccc(-c3cc(Cl)c(O)c(Cl)c3)nc2c1N[C@H]1CC[C@H](CN(C)C)CC1
In short: as §1

ralimetinib = compound: CC(C)(C)Cn1c(N)nc2ccc(-c3[nH]c(C(C)(C)C)nc3-c3ccc(F)cc3)nc21 [ralimetinib]
In short: as §1

[11] = compound: CC(C)(O)CC(=O)NCCn1ccc2ncnc(Nc3ccc(Oc4cccc(C(F)(F)F)c4)c(Cl)c3)c21
In short: as §1

[12] = compound: CC(C)C1=C2N=C(C=C(N2N=C1)NCC3=CC=CC=C3)NCCCCCCN
In short: as §1

[13] = compound: CC(C)C[C@@H](C=O)NC(=O)[C@H](CC(C)C)NC(=O)[C@H](CC(C)C)NC(=O)OCc1ccccc1
In short: as §1

pinometostat = compound: CC(C)N(C[C@H]1O[C@@H](n2cnc3c(N)ncnc32)[C@H](O)[C@@H]1O)[C@H]1C[C@@H](CCc2nc3cc(C(C)(C)C)ccc3[nH]2)C1 [pinometostat]
In short: as §1

[14] = compound: CC1=C(C2=C(C=C1)C(=O)C3=CC=CC=C3N2CCCN)C
In short: as §1

[15] = compound: CC1=C(C(CC(=O)N1)C2=CC=C(C=C2)C(F)(F)F)C(=O)NC3=C(C=C4C(=C3)C=NN4)F
In short: as §1

Measured: log2 fold change

NCOA7 (UniProt Q8NI08)
inactive: erlotinib -0.027 | [1] 0.063 | [2] -0.047 | [3] 0.004 | [4] 0.07 | [5] -0.048 | [6] 0.014 | [7] 0.011 | [8] 0.024 | [9] 0.045 | IRAK-1-4 Inhibitor I 0.017 | ibrutinib -0.056 | [10] -0.075 | ralimetinib 0.052 | [11] -0.005 | [12] -0.088 | [13] 0.072 | pinometostat 0.019 | [14] -0.009

NDUFA11 (UniProt Q86Y39)
inactive: erlotinib 0.019 | [1] 0.03 | [2] 0.089 | [3] 0 | [4] 0.012 | [5] 0.043 | [6] 0.006 | [7] -0.005 | [8] -0.019 | [9] -0.029 | IRAK-1-4 Inhibitor I 0.033 | ibrutinib -0.001 | [10] -0.013 | ralimetinib -0.042 | [11] -0.014 | [12] -0.04 | [13] -0.03 | pinometostat -0.055 | [15] 0.021 | [14] 0.011

NA, A0A0B4J2A0
inactive: erlotinib -0.037 | [1] 0.07 | [2] 0.065 | [3] -0.009 | [4] 0.037 | [5] 0.038 | [6] 0.108 | [7] 0.026 | [8] -0.055 | [9] -0.007 | IRAK-1-4 Inhibitor I 0.014 | ibrutinib -0.015 | [10] -0.072 | ralimetinib -0.023 | [11] -0.105 | [12] 0.044 | [13] 0.031 | pinometostat 0.018 | [14] 0.107

NDUFA10 (UniProt O95299)
inactive: erlotinib 0.001 | [1] 0.036 | [2] 0.068 | [3] 0.003 | [4] 0.024 | [5] 0.042 | [6] 0.026 | [7] 0.026 | [8] 0.016 | [9] 0.02 | IRAK-1-4 Inhibitor I 0.03 | ibrutinib -0.017 | [10] -0.052 | ralimetinib -0.07 | [11] -0.114 | [12] -0.076 | [13] 0.012 | pinometostat -0.003 | [15] 0.029 | [14] 0.065

2 successive entries from above, for reference:
NA, A0A0B4J2A0
inactive: erlotinib -0.037 | [1] 0.07 | [2] 0.065 | [3] -0.009 | [4] 0.037 | [5] 0.038 | [6] 0.108 | [7] 0.026 | [8] -0.055 | [9] -0.007 | IRAK-1-4 Inhibitor I 0.014 | ibrutinib -0.015 | [10] -0.072 | ralimetinib -0.023 | [11] -0.105 | [12] 0.044 | [13] 0.031 | pinometostat 0.018 | [14] 0.107

NDUFA10 (UniProt O95299)
inactive: erlotinib 0.001 | [1] 0.036 | [2] 0.068 | [3] 0.003 | [4] 0.024 | [5] 0.042 | [6] 0.026 | [7] 0.026 | [8] 0.016 | [9] 0.02 | IRAK-1-4 Inhibitor I 0.03 | ibrutinib -0.017 | [10] -0.052 | ralimetinib -0.07 | [11] -0.114 | [12] -0.076 | [13] 0.012 | pinometostat -0.003 | [15] 0.029 | [14] 0.065

Next entries:

NDUFAF6 (UniProt Q330K2)
inactive: erlotinib 0.028 | [1] -0.009 | [2] 0.059 | [3] 0.058 | [4] 0.071 | [5] 0.12 | [6] 0.065 | [7] -0.051 | [8] 0.049 | [9] 0.074 | IRAK-1-4 Inhibitor I 0.129 | ibrutinib -0.044 | [10] -0.107 | ralimetinib 0.039 | [11] -0.214 | [12] -0.235 | [13] 0.083 | pinometostat -0.132 | [14] -0.109

NDFIP1 (UniProt Q9BT67)
inactive: erlotinib -0.066 | [1] 0.07 | [2] -0.046 | [3] 0.077 | [4] -0.244 | [5] 0.046 | [6] 0.005 | [7] 0.122 | [8] -0.234 | [9] -0.168 | IRAK-1-4 Inhibitor I -0.135 | ibrutinib -0.083 | [10] 0.146 | ralimetinib 0.084 | [11] -0.401 | [13] 0.302 | pinometostat 0.048 | [14] 0.152
active: [12] -1.2

NDC1 (UniProt Q9BTX1)
inactive: erlotinib -0.02 | [1] 0.075 | [2] 0.056 | [3] 0.03 | [4] 0.021 | [5] 0.001 | [6] 0.014 | [7] -0.107 | [8] -0.029 | [9] 0.007 | IRAK-1-4 Inhibitor I 0.02 | ibrutinib -0.018 | [10] -0.026 | ralimetinib -0.041 | [11] -0.009 | [12] -0.112 | [13] -0.007 | pinometostat 0.012 | [15] 0.01 | [14] -0.015

NECTIN2 isoform 2 (UniProt Q92692)
inactive: erlotinib -0.151 | [1] 0.006 | [2] -0.386 | [3] 0.117 | [4] 0.168 | [5] -0.345 | [6] -0.029 | [7] -0.034 | IRAK-1-4 Inhibitor I -0.018 | ibrutinib 0.047 | [10] 0.03 | ralimetinib 0.081 | [11] 0.1 | [12] 0.059 | [13] 0.008 | pinometostat -0.008

NEDD4L (UniProt Q96PU5)
active: ralimetinib -0.293
inactive: erlotinib 0.014 | [1] 0.078 | [2] -0.078 | [3] 0.005 | [4] 0.016 | [5] 0.035 | [6] 0.146 | [7] 0.019 | [8] -0.026 | [9] -0.076 | IRAK-1-4 Inhibitor I 0.026 | ibrutinib -0.002 | [10] -0.014 | [11] -0.01 | [12] -0.107 | [13] -0.059 | pinometostat 0.027 | [14] -0.084

NANP (UniProt Q8TBE9)
inactive: erlotinib 0.094 | [1] 0.004 | [2] -0.01 | [3] 0.058 | [4] 0.09 | [5] 0.013 | [7] -0.006 | [8] -0.006 | [9] -0.099 | ibrutinib -0.034 | [10] -0.015 | [11] -0.064 | [12] 0.04 | [15] 0 | [14] -0.095

NARS2 (UniProt Q96I59)
active: [12] -0.31
inactive: erlotinib 0.037 | [1] 0.065 | [2] 0.07 | [3] 0.008 | [4] -0.018 | [5] -0.004 | [6] 0.053 | [7] 0.017 | [8] -0.002 | [9] -0.083 | IRAK-1-4 Inhibitor I 0.044 | ibrutinib 0.03 | [10] 0.034 | ralimetinib -0.034 | [11] -0.121 | [13] -0.019 | pinometostat -0.019 | [14] -0.006

NDUFB8 (UniProt O95169)
active: [11] -0.36
inactive: erlotinib -0.026 | [1] -0.047 | [2] 0.129 | [3] 0.005 | [4] 0.033 | [5] 0.087 | [6] -0.026 | [7] 0.07 | [8] -0.008 | [9] 0.06 | IRAK-1-4 Inhibitor I 0.001 | ibrutinib -0.01 | [10] -0.004 | ralimetinib -0.063 | [12] -0.042 | [13] 0.059 | pinometostat 0.003 | [14] 0.103

NCAPH (UniProt Q15003)
inactive: erlotinib 0.201 | [1] 0.09 | [2] 0.008 | [3] -0.059 | [4] 0.024 | [5] 0.022 | [6] -0.009 | [7] 0.02 | [8] -0.004 | [9] -0.096 | IRAK-1-4 Inhibitor I -0.124 | ibrutinib -0.045 | [10] 0.097 | ralimetinib 0.007 | [11] -0.094 | [12] -0.023 | [13] 0.02 | pinometostat 0.08 | [14] -0.006

NEDD4 isoform 4 (UniProt P46934)
inactive: erlotinib -0.024 | [1] 0.067 | [2] 0.048 | [3] -0.011 | [4] 0.052 | [5] 0.066 | [6] 0.048 | [7] -0.001 | [8] 0.003 | [9] -0.053 | IRAK-1-4 Inhibitor I 0.002 | ibrutinib -0.038 | [10] 0.02 | ralimetinib -0.014 | [11] -0.027 | [12] -0.124 | [13] 0.019 | pinometostat -0.03 | [14] -0.065

NDUFA6 (UniProt P56556)
inactive: erlotinib 0.014 | [1] 0.133 | [2] 0.11 | [3] -0.015 | [4] -0.045 | [5] 0.002 | [6] 0.104 | [7] 0.042 | [8] -0.031 | [9] -0.008 | IRAK-1-4 Inhibitor I -0.004 | ibrutinib -0.031 | [10] -0.092 | ralimetinib -0.046 | [11] -0.214 | [12] -0.05 | [13] -0.045 | pinometostat -0.083 | [14] 0.175

NDUFS4 (UniProt O43181)
inactive: erlotinib -0.001 | [1] -0.031 | [2] -0.004 | [3] 0.07 | [4] -0.093 | [5] 0.077 | [6] -0.104 | [7] -0.081 | [8] 0.082 | [9] 0.111 | IRAK-1-4 Inhibitor I 0.076 | ibrutinib 0.029 | [10] 0.062 | ralimetinib 0.015 | [11] 0.022 | [12] 0.007 | pinometostat 0.013 | [14] -0.193
active: [13] 0.274

NAA11 (UniProt Q9BSU3)
inactive: erlotinib -0.023 | [1] -0.012 | [2] -0.033 | [3] 0.06 | [4] 0.158 | [5] -0.207 | [6] -0.023 | [7] -0.032 | [8] -0.108 | [9] 0.167 | IRAK-1-4 Inhibitor I 0.035 | ibrutinib 0.049 | [10] -0.102 | ralimetinib -0.024 | [11] -0.042 | [12] -0.075 | [13] 0.072 | pinometostat -0.131 | [14] 0
